Measured values: US20240317877A1
Where a chain is given by its changes, count along the chain named. Names and notes keep the numbering of the source. No constants are given. Whether binding was seen depends on the method and setting. Some results given as binding are weak or reduced against the parent protein; the word gives no strength.

B1: anti-human transferrin receptor antibody 128.1 with VH Y27H mutation (antibody, V domains shown)
VH: EVQLQQSGPELVKPGASMKISCKASGHSFTGYTMNWVKQSHGENLEWIGRINPHNGGTDYNQKFKDKAPLTVDKSSNTAYMELLSLTSEDSAVYYCARGYYYYSLDYWGQGTSVTVSS
VL: QIVLTQSPAIMSASPGEKVTMTCSASSSIDYIHWYQQKSGTSPKRWIYDTSKLASGVPARFSGSGSGTSYSLTISSMEPEDAATYYCHQRNSYPWTFGGGTRLEIR
B2: anti-human transferrin receptor antibody 128.1 with VH Y99H mutation (antibody, V domains shown)
VH: B1 VH with H27Y, Y103H
VL: B1 VL
B3: anti-human transferrin receptor antibody 128.1 with VL Y94A mutation (antibody, V domains shown)
VH: B1 VH with H27Y
VL: B1 VL with Y93A
B4: anti-human transferrin receptor antibody 128.1 with VH Y98A mutation (antibody, V domains shown)
VH: B1 VH with H27Y, Y102A
VL: B1 VL

Columns and labels:
[1] = molecular target: human transferrin receptor (human) (UniProt P02786); test: ELISA, plate-coated human TfR
[2] = molecular target: human transferrin receptor (human) (UniProt P02786); test: ELISA on plate-coated human TfR, antibody diluted from 50 nM

binding [1] | binding [2] | Binder
binds | – | B1
binds | – | B2
binds | – | B3
– | no binding (tested: 50 nM) | B4
